PubChem BioAssay AID720710 | VTT Finland – 2013
Shown is one part, drawn at random, of about 1,380 reagents tested. 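One array per condition without replicates; hydroxyurea arrays received 2 mM for 16 h plus 3 h recovery.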 The numbers tell different reagents against one gene apart.

- Aim: 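Knock-downs that leave cyclin E-high cells sensitive to replication stress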 (primary screen)
- System: human U-2 OS bone cancer cells, parental and a cyclin E (CCNE1) overexpressing line
- Reagents: single siRNA against human genes, 1 µM siRNA in the printed spot mix
- Duration: 67 h
- Conditions: half the arrays: hydroxyurea 2 mM for 16 h, then 3 h recovery; other arrays untreated
- Measurement: 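DNA synthesis measured as imaged EdU uptake per nucleus (DAPI) at 67 h, normalised to subgrid median and given as z-score versus non-targeting controls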
- Reading the numbers: EdU z-score, cyclin E line, hydroxyurea and EdU z-score, parental, hydroxyurea and EdU z-score, cyclin E line, untreated and EdU z-score, parental, untreated: higher = more DNA synthesis than non-targeting controls

gene | reagent | EdU z-score, cyclin E line, hydroxyurea | EdU z-score, parental, hydroxyurea | EdU z-score, cyclin E line, untreated | EdU z-score, parental, untreated
RUVBL1 | 1 | -2.06 | 0.0727 | -2.4 | -1.1
RUVBL1 | 2 | -0.0983 | 2.4 | -1.66 | -0.226
TYMP | 1 | -0.0512 | -0.288 | -3.57 | -1.47
TYMP | 2 | 0.358 | 3.23 | -1.96 | -0.428
MBD1 | 1 | -2.41 | -3.87 | -4.22 | -0.585
MBD1 | 2 | 0.206 | -1.04 | -1.63 | 1.34
CHD2 | 1 | -1.14 | -2.88 | 0.0692 | -1.1
CHD2 | 2 | 1.2 | -0.771 | 1.3 | -0.518
H2BC21 | 1 | -0.209 | 1.78 | 0.0942 | -1.92
H2BC21 | 2 | 0.684 | 1.9 | 0.64 | 0.676
NSD3 | 1 | -0.906 | -0.667 | -2.33 | -1.06
NSD3 | 2 | 1.23 | 2.4 | -1.2 | -0.401
TDP1 | 1 | -1.21 | -0.232 | -5.82 | -2.88
TDP1 | 2 | 1.28 | 0.796 | -0.768 | 0.171
TINF2 | 1 | -0.643 | -3.98 | -3.42 | 0.669
TINF2 | 2 | 0.51 | 1.83 | 0.298 | 1.08
POLL | 1 | 0.269 | -0.452 | -2.16 | -2.14
POLL | 2 | 2.76 | 0.747 | 0.544 | 0.599
MLH3 | 1 | -0.0902 | 1.31 | -0.123 | 0.136
MLH3 | 2 | 0.415 | 2.38 | 0.993 | 2.4
MCM8 | 1 | -1.48 | -1.17 | -7.88 | -1.51
MCM8 | 2 | -1.43 | 1.68 | -2.6 | 0.548
EPC2 | 1 | -0.0166 | -1.68 | -1.14 | -2.12
EPC2 | 2 | 0.401 | -1.12 | -0.707 | 0.471
CHD1 | 1 | -2.79 | -0.4 | -1.54 | 0.158
CHD1 | 2 | 0.653 | 0.66 | 0.165 | 0.171
HAP1 | 1 | -1.51 | 0.798 | -0.606 | -0.825
HAP1 | 2 | -0.0507 | 0.82 | 0.042 | 3.99
SMG1 | 1 | -1.06 | -1.03 | -4.49 | -0.926
SMG1 | 2 | -0.835 | -0.535 | 0.947 | 0.502
NF2 | 1 | 0.0643 | -0.124 | -2.55 | -0.719
NF2 | 2 | 0.176 | 0.997 | -0.181 | 0.0151

The list goes on, starting with the last 7 of the part before.
gene | reagent | EdU z-score, cyclin E line, hydroxyurea | EdU z-score, parental, hydroxyurea | EdU z-score, cyclin E line, untreated | EdU z-score, parental, untreated
CHD1 | 2 | 0.653 | 0.66 | 0.165 | 0.171
HAP1 | 1 | -1.51 | 0.798 | -0.606 | -0.825
HAP1 | 2 | -0.0507 | 0.82 | 0.042 | 3.99
SMG1 | 1 | -1.06 | -1.03 | -4.49 | -0.926
SMG1 | 2 | -0.835 | -0.535 | 0.947 | 0.502
NF2 | 1 | 0.0643 | -0.124 | -2.55 | -0.719
NF2 | 2 | 0.176 | 0.997 | -0.181 | 0.0151
SMARCD1 | 1 | -0.797 | -0.605 | -1.96 | -1.02
SMARCD1 | 2 | -0.278 | 2.52 | 0.778 | 0.971
RECQL | 1 | -1.44 | -1.11 | -1.2 | -1.74
RECQL | 2 | -0.781 | 1.42 | -0.919 | 0.285
FOXN3 | 1 | -0.351 | 0.193 | -0.218 | -1.78
FOXN3 | 2 | 0.106 | 2.7 | 0.254 | 0.0548
VPS4B | 1 | -0.95 | -4.3 | -1.92 | -1.47
VPS4B | 2 | 0.557 | 2.38 | -1.86 | -0.851
PPFIA2 | 1 | 0.616 | -1.57 | -1.37 | -0.155
PPFIA2 | 2 | 1.84 | 2.69 | 0.892 | 0.347
MCM7 | 1 | -2.65 | 0.000806 | -1.31 | -2.99
MCM7 | 2 | -0.178 | 0.81 | -0.456 | -0.214
GEN1 | 1 | -0.649 | -0.055 | -0.119 | -2.13
GEN1 | 2 | -0.621 | 2.74 | 0.0685 | -0.208
DLGAP5 | 1 | -1.26 | 2.82 | -0.557 | 0.0328
DLGAP5 | 2 | 1.01 | 3.47 | -0.243 | 0.0722
REV1 | 1 | 2.06 | 1.24 | -2.51 | -1.29
REV1 | 2 | 2.78 | 3.24 | -1.83 | 0.657
SORD | 1 | 0.779 | -1.49 | -1.11 | -0.208
SORD | 2 | 2.39 | -0.421 | 0.0264 | 0.96
TLK1 | 1 | -0.621 | -1.86 | -2.58 | -1.73
TLK1 | 2 | -0.379 | 0.739 | -0.197 | -1.07
NHEJ1 | 1 | -0.414 | -0.509 | -0.436 | -0.85
NHEJ1 | 2 | 1.34 | 0.506 | 0.36 | 0.024
TOP2B | 1 | 0.137 | -0.52 | -1.88 | -0.898
TOP2B | 2 | 0.146 | 2.62 | -0.582 | 0.00968
